# In US20190389956A1 (INSTITUTE OF BIOPHYSICS CHINESE ACADEMY OF SCIENCES, published 2019):
# Amino acid sequences for entries named in this document (tags omitted). A change or cut given only in a name is not applied to a line headed by its entry. Chains listed by the source or under a name are the forms on record and can include a tag or linker.
# human IFNAR1 truncation lacking extracellular SD2, fused with GFP, expressed on HEK293T cells (P17181, form named): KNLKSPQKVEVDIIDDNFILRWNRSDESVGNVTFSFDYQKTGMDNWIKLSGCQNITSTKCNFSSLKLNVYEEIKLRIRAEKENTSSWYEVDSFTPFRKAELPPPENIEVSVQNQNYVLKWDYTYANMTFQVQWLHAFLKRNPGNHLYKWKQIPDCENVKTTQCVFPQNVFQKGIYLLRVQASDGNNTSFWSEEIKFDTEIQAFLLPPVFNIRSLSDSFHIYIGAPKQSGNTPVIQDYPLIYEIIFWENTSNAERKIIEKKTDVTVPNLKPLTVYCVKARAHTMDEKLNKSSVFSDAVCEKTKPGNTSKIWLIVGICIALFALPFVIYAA
# human IFNAR1 truncation lacking extracellular SD3, fused with GFP, expressed on HEK293T cells (P17181, form named): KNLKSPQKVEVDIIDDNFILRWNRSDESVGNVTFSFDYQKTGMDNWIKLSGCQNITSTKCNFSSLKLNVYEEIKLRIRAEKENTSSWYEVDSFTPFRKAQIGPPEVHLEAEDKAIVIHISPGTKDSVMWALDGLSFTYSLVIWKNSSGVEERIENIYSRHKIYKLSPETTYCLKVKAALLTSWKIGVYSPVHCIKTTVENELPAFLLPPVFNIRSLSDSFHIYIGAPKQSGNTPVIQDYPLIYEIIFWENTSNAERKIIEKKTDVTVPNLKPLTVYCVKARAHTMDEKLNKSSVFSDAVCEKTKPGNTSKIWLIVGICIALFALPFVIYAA
# No constants are given. Whether binding was seen depends on the method and setting. Some results given as binding are weak or reduced against the parent protein; the word gives no strength.
# Assays:
# [1] = molecular target: human IFNAR1 truncation lacking extracellular SD2, fused with GFP, expressed on HEK293T cells (human) (UniProt P17181); experiment: flow cytometry on transfected HEK293T cells, PE anti-mouse IgG
# [2] = molecular target: human IFNAR1 truncation lacking extracellular SD3, fused with GFP, expressed on HEK293T cells (human) (UniProt P17181); experiment: as above
binding [1],binding [2],Binder
binds,binds,"mouse anti-human IFNAR1 monoclonal antibody 10C9 (antibody, V domains shown, Mouse monoclonal IgG from a hybridoma, detected with anti-mouse IgG; also called antibody secreted by hybridoma cell line 10C9 (CGMCC No. 12543)) VH: QIQLVQSGPELKKPGETVKISCKASGYTFTNYGVNWMKQAPGKGLKWMGWINTYTGEPTYADDFKGRFAFSLETSASTAYLQINNLKNEDTATYFCAREGVYYYGDWAWLAYWGQGTLVTVSA VL: DIVMTQSQKFISTSVGDRVSVTCKASQNVGTNVAWYQQKPGQSPKTLIYSTSYRYNGVPDRFTGSGSGTDFTLTISNVQSEDLAEYFCQQYNSYYTFGGGTKLEIK"
binds,binds,"mouse anti-human IFNAR1 monoclonal antibody 10C2 (antibody, V domains shown, Mouse monoclonal IgG from a hybridoma, detected with anti-mouse IgG; also called antibody secreted by hybridoma cell line 10C2 (CGMCC No. 12542)) VH: QIQLVQSGPELKKPGETVKISCKASGYTFTNYGMNWVKQAPGKGLKWMGWINTYTGEPTYSDDFKGRFAFSLETSASTANLQINNLKDEDAATYFCAREGAIYYGDYVYFGVWGAGTTVTVSS VL: DIVMTQSQKFMSTSVGDRVSITCKASQNVGTAVAWYQEKPGQSPKLLIYSASNRYTGVPDRFTGSGSGTAFTLTISNMQSEDLADYFCQQYYNYPLTFGAGTKLEVKR"
